Tested on: trypsin
Experiment: Inhibition of amidolytic activity of trypsin (chromogenic substrate S-2251)
Format: biochemical
Details: Ki trypsin / Ki thrombin; specificity
Protocol: A differential inhibition of thrombin and other serine proteases by the above compounds is desirable in order to obtain compounds having as high a specificity as possible and at the same time to avoid possible side-effects.
Specific chromogenic peptide substrates can be used to determine the inhibition of the catalytic activity of the above proteases. The inhibition of the amidolytic activity of thrombin and trypsin by the above guanidines was determined as described hereinafter.
The measurements were carried out on microtiter plates at room temperature. For this, in each well of the plate 150 μl of buffer (50 mM Tris, 100 mM NaCl, 0.1% polyethylene glycol; pH 7.8) were mixed with 50 μl of the inhibitor dissolved in DMSO and diluted in the buffer, and 25 μl of human thrombin (0.5 nM final conc.) were added. After incubation for 10 minutes, the reaction was started by the addition of chromogenic substrate S-2238 (H-D-Phe-Pip-Arg-paranitroaniline from Kabivitrum; 10 or 50 μm final conc.) and the hydrolysis of the substrate was followed spectrophotometrically on a kinetic microliter plate reader for 5 minutes. After graphical presentation of the inhibition curves, the Ki values were determined according to the method described in Biochem. J. 55, 1955, 170-171. The inhibition of trypsin was effected analogously, but using the substrate S-2251 (H-D-Val-Leu-Lys-paranitroaniline) in 200 and 750 μM final concentration.

Structure (SMILES)	q (ratio of the inhibition of trypsin to the inhibition of thrombin)
N=C(N)N1CCCC(CNC(=O)[C@@H](Cc2ccccc2[N+](=O)[O-])NS(=O)(=O)c2ccc3ccccc3c2)C1 (mixture of isomers) [Example 13a, (R)-N-[(RS)-1-Amidino-3-piperidinylmethyl]-α-(2-naphthylsulfonamido)-o-nitrohydrocinnamamide]	1400
N=C(N)N1CCCC(CNC(=O)[C@@H](Cc2c[nH]c3ccccc23)NS(=O)(=O)c2ccccc2[N+](=O)[O-])C1 (mixture of isomers) [Example 14i, (R)-N-[(RS)-1-Amidino-3-piperidinylmethyl]-α-(o-nitrobenzenesulfonamido)indole-3-propionamide]	1520
N=C(N)N1CCCC(CNC(=O)[C@@H](CN2C(=O)C(=O)c3ccccc32)NS(=O)(=O)c2ccc3ccccc3c2)C1 (stereo partly shown) [Example 8]	2350
N=C(N)N1CCCC(CNC(=O)[C@@H](Cc2ccccc2)NS(=O)(=O)c2ccc3ccccc3c2)C1 (stereo partly drawn) [Example 9, (R)-N-[(RS)-1-amidino-3-piperidinylmethyl]-α-(2-naphthylsulfonamido)hydrocinnamide]	1250
N=C(N)N1CCC[C@@H](CNC(=O)[C@@H](Cc2c[nH]c3ccccc23)NS(=O)(=O)c2ccc(I)cc2)C1 [Example 17b, (R)-N-[(S)-1-Amidino-3-piperidinylmethyl]-α-(p-iodobenzenesulfonamido)indole-3-propionamide]	304
N=C(N)N1CCC[C@@H](COC(=O)[C@@H](Cc2c[nH]c3ccccc23)NS(=O)(=O)c2ccc(I)cc2)C1 [Example 17c, N-(p-Iodophenylsulfonyl)-D-tryptophan (R)-1-amidino-3-piperidinylmethyl ester]	172
N=C(N)N1CCC[C@@H](CNC(=O)[C@@H](Cc2ccc([N+](=O)[O-])cc2)NS(=O)(=O)c2ccc(I)cc2)C1 [Example 17j, (R)-N-[(S)-1-Amidino-3-piperidinylmethyl]-α-(p-iodo-benzenesulfonamido)-p-nitrohydrocinnamamide]	565
